# Results as given in the supplement of paper PMC11732987, “Enantioselective OTUD7B fragment discovery through chemoproteomics screening and high-throughput optimisation” (Communications Chemistry, 2025).
# Some of the results follow. The data scatter; read single values as rough.
# Tested on: T1, NACAD C1152
# T1 sequence (whole entry): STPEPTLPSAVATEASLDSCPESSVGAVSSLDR
# Assay: log2 mean competition ratio of IA-DTB cysteine labelling (DMSO/compound) (log2 ratio); higher = stronger cysteine engagement by compound
# Details: 50 µM; treatment time: 4 h; cell line lysate: HEK293T
# Procedure: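 IA-DTB competitive cysteine chemoproteomics in HEK293T RIPA lysate. Lysates were treated with compound 29 or 30 at 50 or 200 µM for 4 h, then IA-DTB (500 µM, 1 h), trypsin-digested, NeutrAvidin-enriched and analysed by diaPASEF. Competition ratio = intensity DMSO / intensity compound (n=4 treated, n=64 DMSO); binding: mean log2 CR ≥ 1 and p ≤ 0.05 plus QC filters. Target is the cysteine site.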
row,SMILES,log2 mean competition ratio
1,O=C(CCl)N[C@H]1CCCc2ccccc21,0.174
2,O=C(CCl)N[C@@H]1CCCc2ccccc21,-0.528

# Same assay, conditions: 200 µM; treatment time: 4 h; cell line lysate: HEK293T
row,SMILES,log2 mean competition ratio
1,O=C(CCl)N[C@H]1CCCc2ccccc21,-0.182
2,O=C(CCl)N[C@@H]1CCCc2ccccc21,0.145
